Reference: publication PMC6985654
Results are given in words; binding and its absence hold for the method and conditions named. In cells and extracts the contact can be indirect. Some binding calls cover weakened binding; strength is not graded here. Tags and fused reporters may be left off the sequences shown. Blank lines part the entries; values can stand above or below the molecule they belong to.

Amino acid sequences for entries named in this document (tags omitted).
UniProt P27641: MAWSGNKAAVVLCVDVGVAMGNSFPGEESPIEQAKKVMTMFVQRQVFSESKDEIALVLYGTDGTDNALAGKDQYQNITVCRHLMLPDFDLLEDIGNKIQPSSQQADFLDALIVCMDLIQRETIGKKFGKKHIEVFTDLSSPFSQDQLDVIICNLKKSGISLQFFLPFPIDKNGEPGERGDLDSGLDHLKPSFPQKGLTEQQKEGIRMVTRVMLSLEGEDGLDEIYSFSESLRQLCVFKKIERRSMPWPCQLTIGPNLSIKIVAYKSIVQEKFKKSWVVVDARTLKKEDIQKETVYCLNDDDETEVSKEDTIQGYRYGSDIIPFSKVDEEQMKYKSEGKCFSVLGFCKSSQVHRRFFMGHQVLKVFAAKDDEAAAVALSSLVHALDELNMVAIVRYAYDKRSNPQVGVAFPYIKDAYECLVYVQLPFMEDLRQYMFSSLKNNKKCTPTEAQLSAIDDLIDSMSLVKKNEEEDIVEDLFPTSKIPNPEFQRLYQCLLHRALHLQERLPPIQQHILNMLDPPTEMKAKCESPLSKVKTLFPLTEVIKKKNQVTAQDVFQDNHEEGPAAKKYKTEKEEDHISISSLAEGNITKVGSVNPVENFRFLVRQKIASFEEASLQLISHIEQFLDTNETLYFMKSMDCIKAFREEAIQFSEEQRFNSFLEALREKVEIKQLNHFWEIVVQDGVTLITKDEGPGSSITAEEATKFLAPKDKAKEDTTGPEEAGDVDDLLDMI

Molecular target: T1, GFP tagged RBM14 (Gfp-Rbm14) (mouse) (UniProt Q8C2Q3)
T1 sequence: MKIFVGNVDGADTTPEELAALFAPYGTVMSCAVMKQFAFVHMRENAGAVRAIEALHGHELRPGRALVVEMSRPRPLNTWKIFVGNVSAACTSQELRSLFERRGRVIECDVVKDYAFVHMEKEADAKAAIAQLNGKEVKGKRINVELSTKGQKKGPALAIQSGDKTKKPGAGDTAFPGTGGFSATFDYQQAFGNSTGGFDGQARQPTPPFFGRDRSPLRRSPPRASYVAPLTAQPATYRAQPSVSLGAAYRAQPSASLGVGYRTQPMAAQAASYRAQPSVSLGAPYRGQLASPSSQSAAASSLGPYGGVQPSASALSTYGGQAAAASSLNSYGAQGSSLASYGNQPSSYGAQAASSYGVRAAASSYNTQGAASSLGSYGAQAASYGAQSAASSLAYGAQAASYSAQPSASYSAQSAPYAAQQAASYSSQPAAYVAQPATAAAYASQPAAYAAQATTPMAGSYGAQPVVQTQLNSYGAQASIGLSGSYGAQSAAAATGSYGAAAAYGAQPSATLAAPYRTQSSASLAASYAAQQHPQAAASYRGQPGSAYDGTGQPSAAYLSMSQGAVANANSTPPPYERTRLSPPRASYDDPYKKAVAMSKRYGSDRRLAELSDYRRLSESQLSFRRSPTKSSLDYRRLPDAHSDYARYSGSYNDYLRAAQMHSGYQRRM
Assay: co-IP; anti-GFP antibody (Abcam ab290) or IgG cross-linked (DSS) to Protein A/G magnetic beads; lysate of mouse ESCs (1 x 10^7 cells), 4°C overnight; five washes; eluate to western blot

binding: no binding
Molecule: Ku80 (from UniProt P27641 1-732)

binding: binds
B1: SF3B1 (protein, UniProt Q99NB9 1-1304)
chain: MAKIAKTHEDIEAQIREIQGKKAALDEAQGVGLDSTGYYDQEIYGGSDSRFAGYVTSIAATELEDDDDDYSSSTSLLGQKKPGYHAPVALLNDIPQSTEQYDPFAEHRPPKIADREDEYKKHRRTMIISPERLDPFADGGKTPDPKMNARTYMDVMREQHLTKEEREIRQQLAEKAKAGELKVVNGAAASQPPSKRKRRWDQTADQTPGATPKKLSSWDQAETPGHTPSLRWDETPGRAKGSETPGATPGSKIWDPTPSHTPAGAATPGRGDTPGHATPGHGGATSSARKNRWDETPKTERDTPGHGSGWAETPRTDRGGDSIGETPTPGASKRKSRWDETPASQMGGSTPVLTPGKTPIGTPAMNMATPTPGHIMSMTPEQLQAWRWEREIDERNRPLSDEELDAMFPEGYKVLPPPAGYVPIRTPARKLTATPTPLGGMTGFHMQTEDRTMKSVNDQPSGNLPFLKPDDIQYFDKLLVDVDESTLSPEEQKERKIMKLLLKIKNGTPPMRKAALRQITDKAREFGAGPLFNQILPLLMSPTLEDQERHLLVKVIDRILYKLDDLVRPYVHKILVVIEPLLIDEDYYARVEGREIISNLAKAAGLATMISTMRPDIDNMDEYVRNTTARAFAVVASALGIPSLLPFLKAVCKSKKSWQARHTGIKIVQQIAILMGCAILPHLRSLVEIIEHGLVDEQQKVRTISALAIAALAEAATPYGIESFDSVLKPLWKGIRQHRGKGLAAFLKAIGYLIPLMDAEYANYYTREVMLILIREFQSPDEEMKKIVLKVVKQCCGTDGVEANYIKTEILPPFFKHFWQHRMALDRRNYRQLVDTTVELANKVGAAEIISRIVDDLKDEAEQYRKMVMETIEKIMGNLGAADIDHKLEEQLIDGILYAFQEQTTEDSVMLNGFGTVVNALGKRVKPYLPQICGTVLWRLNNKSAKVRQQAADLISRTAVVMKTCQEEKLMGHLGVVLYEYLGEEYPEVLGSILGALKAIVNVIGMHKMTPPIKDLLPRLTPILKNRHEKVQENCIDLVGRIADRGAEYVSAREWMRICFELLELLKAHKKAIRRATVNTFGYIAKAIGPHDVLATLLNNLKVQERQNRVCTTVAIAIVAETCSPFTVLPALMNEYRVPELNVQNGVLKSLSFLFEYIGEMGKDYIYAVTPLLEDALMDRDLVHRQTASAVVQHMSLGVYGFGCEDSLNHLLNYVWPNVFETSPHVIQAVMGALEGLRVAIGPCRMLQYCLQGLFHPARKVRDVYWKIYNSIYIGSQDALIAHYPRIYNDDKNTYIRYDLDYIL

binding: binds
B2: SF3B3 (protein, UniProt Q921M3 1-1217)
chain: MFLYNLTLQRATGISFAIHGNFSGTKQQEIVVSRGKILELLRPDPNTGKVHTLLTVEVFGVIRSLMAFRLTGGTKDYIVVGSDSGRIVILEYQPSKNMFEKIHQETFGKSGCRRIVPGQFLAVDPKGRAVMISAIEKQKLVYILNRDAAARLTISSPLEAHKANTLVYHVVGVDVGFENPMFACLEMDYEEADNDPTGEAAANTQQTLTFYELDLGLNHVVRKYSEPLEEHGNFLITVPGGSDGPSGVLICSENYITYKNFGDQPDIRCPIPRRRNDLDDPERGMIFVCSATHKTKSMFFFLAQTEQGDIFKITLETDEDMVTEIRLKYFDTVPVAAAMCVLKTGFLFVASEFGNHYLYQIAHLGDDDEEPEFSSAMPLEEGDTFFFQPRPLKNLVLVDELDSLSPILFCQIADLANEDTPQLYVACGRGPRSSLRVLRHGLEVSEMAVSELPGNPNAVWTVRRHIEDEFDAYIIVSFVNATLVLSIGETVEEVTDSGFLGTTPTLSCSLLGDDALVQVYPDGIRHIRADKRVNEWKTPGKKTIVKCAVNQRQVVIALTGGELVYFEMDPSGQLNEYTERKEMSADVVCMSLANVPPGEQRSRFLAVGLVDNTVRIISLDPSDCLQPLSMQALPAQPESLCIVEMGGTEKQDELGERGSIGFLYLNIGLQNGVLLRTVLDPVTGDLSDTRTRYLGSRPVKLFRVRMQGQEAVLAMSSRSWLSYSYQSRFHLTPLSYETLEFASGFASEQCPEGIVAISTNTLRILALEKLGAVFNQVAFPLQYTPRKFVIHPESNNLIIIETDHNAYTEATKAQRKQQMAEEMVEAAGEDERELAAEMAAAFLNENLPESIFGAPKAGNGQWASVIRVMNPIQGNTLDLVQLEQNEAAFSVAVCRFSNTGEDWYVLVGVAKDLILSPRSVAGGFVYTYKLVNNGEKLEFLHKTPVEEVPAAIAPFQGRVLIGVGKLLRVYDLGKKKLLRKCENKHIANYISGIQTIGHRVIVSDVQESFIWVRYKRNENQLIIFADDTYPRWVTTASLLDYDTVAGADKFGNICVVRLPPNTNDEVDEDPTGNKALWDRGLLNGASQKAEVIMNYHVGETVLSLQKTTLIPGGSESLVYTTLSGGIGILVPFTSHEDHDFFQHVEMHLRSEHPPLCGRDHLSFRSYYFPVKNVIDGDLCEQFNSMEPNKQKNVSEELDRTPPEVSKKLEDIRTRYAF
